Changes are numbered by the printed parent chain. Results are given in words; binding and its absence hold for the method and conditions named. In cells and extracts the contact can be indirect. For some assays here: A result given as binding can be weak or reduced; the word gives no strength. Sequences can lack the tags named with a protein.

Chains of the proteins cited; added tags and fusions are not shown. Lines headed by an entry give the natural chain unless they say otherwise; changes in a name come on top.
UniProt Q9P0L0: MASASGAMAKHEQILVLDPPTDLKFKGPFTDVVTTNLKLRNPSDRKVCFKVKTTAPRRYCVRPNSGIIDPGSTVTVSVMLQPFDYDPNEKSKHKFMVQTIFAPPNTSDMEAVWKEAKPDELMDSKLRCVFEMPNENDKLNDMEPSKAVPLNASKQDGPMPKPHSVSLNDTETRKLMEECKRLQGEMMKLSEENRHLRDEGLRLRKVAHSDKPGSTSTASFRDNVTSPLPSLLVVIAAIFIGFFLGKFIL
UniProt O95292: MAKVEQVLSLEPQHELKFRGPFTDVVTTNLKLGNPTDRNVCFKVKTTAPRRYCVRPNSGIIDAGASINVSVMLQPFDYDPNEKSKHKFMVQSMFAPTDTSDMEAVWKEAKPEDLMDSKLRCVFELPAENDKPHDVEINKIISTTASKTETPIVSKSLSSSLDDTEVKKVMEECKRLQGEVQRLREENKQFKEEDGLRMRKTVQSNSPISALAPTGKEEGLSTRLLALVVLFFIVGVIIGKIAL

Assay in all cases: pull-down; GST fusion protein from E. coli on Glutathione Sepharose beads; 35S-labelled in vitro translated Myc-tagged protein, precleared, incubated 1 h at 4 °C in NETN buffer (50 mM Tris pH 8.0, 150 mM NaCl, 1 mM EDTA, 0.5% NP-40); five washes; autoradiography; only the target purified
One assay concerns the target GST-VAPA (WT) (human) (UniProt Q9P0L0).
Assay [1] concerns the target GST-VAPA K94D/M96D (human) (UniProt Q9P0L0).
Assay [2] deals with GST-VAPB K87D/M89D (human) (UniProt O95292).

B1: Myc-CALCOCO1 ∆SKICH (∆1–144), in vitro translated (domain or fragment, UniProt Q9P1Z2 145-691)
chain: KATVLQNQLDESQQERNDLMQLKLQLEGQVTELRSRVQELERALATARQEHTELMEQYKGISRSHGEITEERDILSRQQGDHVARILELEDDIQTISEKVLTKEVELDRLRDTVKALTREQEKLLGQLKEVQADKEQSEAELQVAQQENHHLNLDLKEAKSWQEEQSAQAQRLKDKVAQMKDTLGQAQQRVAELEPLKEQLRGAQELAASSQQKATLLGEELASAAAARDRTIAELHRSRLEVAEVNGRLAELGLHLKEEKCQWSKERAGLLQSVEAEKDKILKLSAEILRLEKAVQEERTQNQVFKTELAREKDSSLVQLSESKRELTELRSALRVLQKEKEQLQEEKQELLEYMRKLEARLEKVADEKWNEDATTEDEEAAVGLSCPAALTDSEDESPEDMRLPPYGLCERGDPGSSPAGPREASPLVVISQPAPISPHLSGPAEDSSSDSEAEDEKSVLMAAVQSGGEEANLLLPELGSAFYDMASGFTVGTLSETSTGGPATPTWKECPICKERFPAESDKDALEDHMDGHFFFSTQDPFTFE
modifications: 35S-methionine label
For the molecule B1, in the assay with GST-VAPA (WT) (human), the binding entry is given as “binds”.

B2: Myc-CALCOCO1 ∆SKICH + ΔLIR FFF/AAA, in vitro translated (domain or fragment, UniProt Q9P1Z2 145-691)
chain: B1 chain with F536A, F537A, F538A
modifications: 35S-methionine label
As to B2, in the assay with GST-VAPA (WT) (human), the binding result was “binds”.

B3: Myc-CALCOCO1 ∆CT (∆514–691), in vitro translated (domain or fragment, UniProt Q9P1Z2 1-513)
chain: MEESPLSRAPSRGGVNFLNVARTYIPNTKVECHYTLPPGTMPSASDWIGIFKVEAACVRDYHTFVWSSVPESTTDGSPIHTSVQFQASYLPKPGAQLYQFRYVNRQGQVCGQSPPFQFREPRPMDELVTLEEADGGSDILLVVPKATVLQNQLDESQQERNDLMQLKLQLEGQVTELRSRVQELERALATARQEHTELMEQYKGISRSHGEITEERDILSRQQGDHVARILELEDDIQTISEKVLTKEVELDRLRDTVKALTREQEKLLGQLKEVQADKEQSEAELQVAQQENHHLNLDLKEAKSWQEEQSAQAQRLKDKVAQMKDTLGQAQQRVAELEPLKEQLRGAQELAASSQQKATLLGEELASAAAARDRTIAELHRSRLEVAEVNGRLAELGLHLKEEKCQWSKERAGLLQSVEAEKDKILKLSAEILRLEKAVQEERTQNQVFKTELAREKDSSLVQLSESKRELTELRSALRVLQKEKEQLQEEKQELLEYMRKLEARLEKVADE
modifications: 35S-methionine label
On to B3, for which the binding entry with GST-VAPA (WT) (human) is on record as “no binding”.

B4: Myc-CALCOCO1 ∆SKICH + ΔLIR ∆671–691, in vitro translated (domain or fragment, UniProt Q9P1Z2 145-670)
chain: KATVLQNQLDESQQERNDLMQLKLQLEGQVTELRSRVQELERALATARQEHTELMEQYKGISRSHGEITEERDILSRQQGDHVARILELEDDIQTISEKVLTKEVELDRLRDTVKALTREQEKLLGQLKEVQADKEQSEAELQVAQQENHHLNLDLKEAKSWQEEQSAQAQRLKDKVAQMKDTLGQAQQRVAELEPLKEQLRGAQELAASSQQKATLLGEELASAAAARDRTIAELHRSRLEVAEVNGRLAELGLHLKEEKCQWSKERAGLLQSVEAEKDKILKLSAEILRLEKAVQEERTQNQVFKTELAREKDSSLVQLSESKRELTELRSALRVLQKEKEQLQEEKQELLEYMRKLEARLEKVADEKWNEDATTEDEEAAVGLSCPAALTDSEDESPEDMRLPPYGLCERGDPGSSPAGPREASPLVVISQPAPISPHLSGPAEDSSSDSEAEDEKSVLMAAVQSGGEEANLLLPELGSAFYDMASGFTVGTLSETSTGGPATPTWKECPICKERFPAESDKD
modifications: 35S-methionine label
Consider B4, for which the binding result with GST-VAPA (WT) (human) is reported as “binds weakly”.

B5: Myc-CALCOCO1 (full length), in vitro translated (protein, UniProt Q9P1Z2 1-691)
chain: MEESPLSRAPSRGGVNFLNVARTYIPNTKVECHYTLPPGTMPSASDWIGIFKVEAACVRDYHTFVWSSVPESTTDGSPIHTSVQFQASYLPKPGAQLYQFRYVNRQGQVCGQSPPFQFREPRPMDELVTLEEADGGSDILLVVPKATVLQNQLDESQQERNDLMQLKLQLEGQVTELRSRVQELERALATARQEHTELMEQYKGISRSHGEITEERDILSRQQGDHVARILELEDDIQTISEKVLTKEVELDRLRDTVKALTREQEKLLGQLKEVQADKEQSEAELQVAQQENHHLNLDLKEAKSWQEEQSAQAQRLKDKVAQMKDTLGQAQQRVAELEPLKEQLRGAQELAASSQQKATLLGEELASAAAARDRTIAELHRSRLEVAEVNGRLAELGLHLKEEKCQWSKERAGLLQSVEAEKDKILKLSAEILRLEKAVQEERTQNQVFKTELAREKDSSLVQLSESKRELTELRSALRVLQKEKEQLQEEKQELLEYMRKLEARLEKVADEKWNEDATTEDEEAAVGLSCPAALTDSEDESPEDMRLPPYGLCERGDPGSSPAGPREASPLVVISQPAPISPHLSGPAEDSSSDSEAEDEKSVLMAAVQSGGEEANLLLPELGSAFYDMASGFTVGTLSETSTGGPATPTWKECPICKERFPAESDKDALEDHMDGHFFFSTQDPFTFE
modifications: 35S-methionine label
Consider B5, for which the results for the binding result (with GST-VAPA (WT) (human); in assay [1]; in assay [2]) were “binds”, “no binding” and “no binding”, respectively.

B6: Myc-CALCOCO1 ∆145–513, in vitro translated (protein, UniProt Q9P1Z2)
chain: MEESPLSRAPSRGGVNFLNVARTYIPNTKVECHYTLPPGTMPSASDWIGIFKVEAACVRDYHTFVWSSVPESTTDGSPIHTSVQFQASYLPKPGAQLYQFRYVNRQGQVCGQSPPFQFREPRPMDELVTLEEADGGSDILLVVPKWNEDATTEDEEAAVGLSCPAALTDSEDESPEDMRLPPYGLCERGDPGSSPAGPREASPLVVISQPAPISPHLSGPAEDSSSDSEAEDEKSVLMAAVQSGGEEANLLLPELGSAFYDMASGFTVGTLSETSTGGPATPTWKECPICKERFPAESDKDALEDHMDGHFFFSTQDPFTFE
modifications: 35S-methionine label
As for B6, in the assay with GST-VAPA (WT) (human), the binding entry was “binds”.

(Values after article PMC7396842.)
